# PMC11718236, “The Psu protein of phage satellite P4 inhibits transcription termination factor ρ by forced hyper-oligomerization” (Nature Communications, 2023)
# Protein sequences, listed by entry. Tags and fused reporters are not part of them. Lines headed by an entry give the natural chain unless they say otherwise; changes in a name come on top.
# UniProt P0AG30: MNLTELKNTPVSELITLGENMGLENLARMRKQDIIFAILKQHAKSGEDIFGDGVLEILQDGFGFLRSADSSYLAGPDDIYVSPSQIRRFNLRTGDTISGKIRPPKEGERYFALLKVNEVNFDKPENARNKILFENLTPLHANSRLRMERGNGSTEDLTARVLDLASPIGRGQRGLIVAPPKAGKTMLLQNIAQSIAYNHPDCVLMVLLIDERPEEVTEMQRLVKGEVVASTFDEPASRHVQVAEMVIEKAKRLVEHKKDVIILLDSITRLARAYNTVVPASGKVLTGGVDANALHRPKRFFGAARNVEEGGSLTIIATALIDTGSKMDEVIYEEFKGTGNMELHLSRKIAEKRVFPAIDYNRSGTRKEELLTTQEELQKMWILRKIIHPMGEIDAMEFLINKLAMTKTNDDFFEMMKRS
# UniProt P05460: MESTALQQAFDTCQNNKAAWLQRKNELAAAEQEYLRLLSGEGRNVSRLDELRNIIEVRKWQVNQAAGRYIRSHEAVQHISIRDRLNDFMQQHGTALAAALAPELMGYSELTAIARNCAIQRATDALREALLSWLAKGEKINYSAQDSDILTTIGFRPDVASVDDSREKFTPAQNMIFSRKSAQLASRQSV
# Results are given in words; binding and its absence hold for the method and conditions named.
# Target: transcription termination factor ρ P167L variant, non-tagged, purified (E. coli) (UniProt P0AG30)
# Assay: condition: 1200 pmol Psu dimer with 300 pmol ρ^P167L hexamer in 50 µl; SEC; analytical SEC on Superose 6 increase 3.2/300; 300 pmol ρ^wt/P167L hexamer and 1200 pmol Psu dimer (wt or variants) in 50 µl; 10 mM TRIS-HCl pH 7.5, 150 mM NaCl, 5 mM MgCl2, 1 mM DTT; without or with 2 mM ATP or analogs; 32 °C for 10 min before loading; fractions by SDS-PAGE; both purified
substance,measurement,value
"Psu D49R variant, purified (from UniProt P05460 1-190)",binding,no binding
